These are yes or no findings as the source states them, for the method shown. Binding seen in cells or lysates may run through a third protein. For some of these results: A result given as binding can be weak or reduced; the word gives no strength. Sequences can lack the tags named with a protein.
Tests used:
[1] = target: Flag-tagged wildtype Xenopus cyclin B3 (IVT) (Xenopus laevis); assay: co-IP; α-Flag IP of IVT Flag-cycB3^WT/PM from CSF extract with IVT Myc-XErp1^s variants, arrested with Myc-XErp1^CT (aa 491–651, T545A, T551A) and MG262 (100 µM); 30 min at RT; IP samples treated with λ-phosphatase; Western blot
[2] = target: Flag-tagged pocket mutant Xenopus cyclin B3 (IVT) (Xenopus laevis); assay: as above

B1: Myc-tagged full-length stable XErp1 (XErp1^s WT) (protein, UniProt Q8AXF4 1-651)
chain: MANLLENFAAHHSMTAGAKKKADHQDTSVSQDNGYSDNLKGFSPDSHKSGNFLETVTEGYENSENIDPTLILSPIKYELSWGADTRESKQLAPLYETPRVGKKEFSLRRRLLISKATSGGNLDFDVSVCSAESCGREKSLRRIPSHEGSLSNSFADSPRDGSYEPIATSTLKTESESGTSCKKWRLSFAQQRSSTLDDSKSDSIPLPEVENISPVQHSLASSTDDSILYEETIFGAPTTPTCNFIVKEEFQTPISNLAANFRFNLCTPDVGHVSDFDISVTEDNAFHNLSLDKSQDSITDHEGSFQELIQKPRETSKAVNNKSRLRKLDRCRRLSTLRERGSQSEVEEEGNEVPVLSSAYKLKVARASVDEENEFSSDESRVHSLLSSDDLTGKPALRVLHEMLLRSTRKRPQQATVQDLLGSSGCFELPEDSLSRLIGRKMGLETFDILAELKNRNLKHILASILDLVNAASICSMCRVSRDWRDVVLQDKSAHQRRKAYIKKLKTEAEQGRQLSFEDSATRLNILSRSALRSVQIQARSAFRTPTSSLTPGDNKSIHSASKHQEYLKVAKTLFTDEALKPCPRCQYPAKYQALKKRGTCSRKDCGFDFCSLCLCTFHGSKECGTGSAKRIPKKEALPGSAQSKRNLKRL
In the case of B1, the binding [1] is reported as “binds” and the binding [2] is reported as “no binding”.

B2: Myc-tagged full-length stable XErp1 T97A (XErp1^s T97A) (protein, UniProt Q8AXF4 1-651)
chain: MANLLENFAAHHSMTAGAKKKADHQDTSVSQDNGYSDNLKGFSPDSHKSGNFLETVTEGYENSENIDPTLILSPIKYELSWGADTRESKQLAPLYEAPRVGKKEFSLRRRLLISKATSGGNLDFDVSVCSAESCGREKSLRRIPSHEGSLSNSFADSPRDGSYEPIATSTLKTESESGTSCKKWRLSFAQQRSSTLDDSKSDSIPLPEVENISPVQHSLASSTDDSILYEETIFGAPTTPTCNFIVKEEFQTPISNLAANFRFNLCTPDVGHVSDFDISVTEDNAFHNLSLDKSQDSITDHEGSFQELIQKPRETSKAVNNKSRLRKLDRCRRLSTLRERGSQSEVEEEGNEVPVLSSAYKLKVARASVDEENEFSSDESRVHSLLSSDDLTGKPALRVLHEMLLRSTRKRPQQATVQDLLGSSGCFELPEDSLSRLIGRKMGLETFDILAELKNRNLKHILASILDLVNAASICSMCRVSRDWRDVVLQDKSAHQRRKAYIKKLKTEAEQGRQLSFEDSATRLNILSRSALRSVQIQARSAFRTPTSSLTPGDNKSIHSASKHQEYLKVAKTLFTDEALKPCPRCQYPAKYQALKKRGTCSRKDCGFDFCSLCLCTFHGSKECGTGSAKRIPKKEALPGSAQSKRNLKRL
With B2 the binding [1] was “no binding”.

B3: Myc-tagged full-length stable XErp1 3RA (XErp1^s 3RA) (protein, UniProt Q8AXF4 1-651)
chain: MANLLENFAAHHSMTAGAKKKADHQDTSVSQDNGYSDNLKGFSPDSHKSGNFLETVTEGYENSENIDPTLILSPIKYELSWGADTRESKQLAPLYETPRVGKKEFSLAAALLISKATSGGNLDFDVSVCSAESCGREKSLRRIPSHEGSLSNSFADSPRDGSYEPIATSTLKTESESGTSCKKWRLSFAQQRSSTLDDSKSDSIPLPEVENISPVQHSLASSTDDSILYEETIFGAPTTPTCNFIVKEEFQTPISNLAANFRFNLCTPDVGHVSDFDISVTEDNAFHNLSLDKSQDSITDHEGSFQELIQKPRETSKAVNNKSRLRKLDRCRRLSTLRERGSQSEVEEEGNEVPVLSSAYKLKVARASVDEENEFSSDESRVHSLLSSDDLTGKPALRVLHEMLLRSTRKRPQQATVQDLLGSSGCFELPEDSLSRLIGRKMGLETFDILAELKNRNLKHILASILDLVNAASICSMCRVSRDWRDVVLQDKSAHQRRKAYIKKLKTEAEQGRQLSFEDSATRLNILSRSALRSVQIQARSAFRTPTSSLTPGDNKSIHSASKHQEYLKVAKTLFTDEALKPCPRCQYPAKYQALKKRGTCSRKDCGFDFCSLCLCTFHGSKECGTGSAKRIPKKEALPGSAQSKRNLKRL
With B3 the binding [1] was “no binding”.

Reference: article PMC11811201
